Test results published in the supplement of paper PMC6078165.
Values are relative to the signal before dosing, not to a vehicle control; the signal also falls without drug.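 Labels refer to human fibroblasts, largely primary: uterine (C12385, HUF), lung (H6013), bone (Hs27A), adrenal (HADF), skin (WS1), plus mammary HMF and breast cancer-associated Hs343T. Cancer lines are basal-like or mesenchymal-like triple-negative breast cancer. The paper counts as hits responses shifting over 3x the replicate standard deviation. The tissue of the other fibroblasts is not given here.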

System: HCC1143
Assay: relative JC-1 red fluorescence (viability) vs pre-drug, coculture with fibroblast (fraction); higher = more viable cancer cells
Description: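 JC-1 labelled TNBC cells cocultured 1:1 (1,500 cells each) with CellTrace Violet stained primary or stromal fibroblasts in 384-well plates in FluoroBrite medium, treated with one of 42 anticancer drugs at 0.1, 1, 10 or 100 uM. JC-1 red fluorescence (mitochondrial integrity in cancer cells only) was read by plate reader every 8 h for 72 h. Values are normalised to each well's pre-drug value. The stock of one drug was tenfold lower, so its dose labels may be too high.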

CC(=O)c1c(C)c2cnc(Nc3ccc(N4CCNCC4)cn3)nc2n(C2CCCC2)c1=O [Palbociclib]
relative JC-1 red fluorescence
Details | 8 h | 16 h | 24 h | 32 h | 40 h | 48 h | 56 h | 64 h | 72 h
10 µM, coculture fibroblast: C12385 | 0.8599 | 0.8135 | 0.7884 | 0.757 | 0.709 | 0.6705 | 0.64055 | 0.6038 | 0.582
10 µM, coculture fibroblast: H6013 | 0.875 | 0.866 | 0.892 | 0.809 | 0.905 | 0.894 | 0.891 | 0.894 | 0.842
10 µM, coculture fibroblast: H6019 | 0.89 | 0.851 | 0.846 | 0.799 | 0.778 | 0.757 | 0.736 | 0.709 | 0.681
10 µM, coculture fibroblast: H6076 | 0.863 | 0.89 | 0.879 | 0.94 | 0.908 | 0.964 | 0.941 | 0.907 | 0.914
10 µM, coculture fibroblast: H6231 | 0.812 | 0.883 | 0.836 | 0.639 | 0.77 | 0.731 | 0.706 | 0.666 | 0.638
10 µM, coculture fibroblast: HADF | 0.731 | 0.696 | 0.685 | 0.729 | 0.601 | 0.574 | 0.556 | 0.537 | 0.658
10 µM, coculture fibroblast: HCFa | 0.766 | 0.7 | 0.684 | 0.72 | 0.62 | 0.58 | 0.572 | 0.547 | 0.616
10 µM, coculture fibroblast: HCPF | 0.8069 | 0.803 | 0.903 | 0.6677 | 0.839 | 0.787 | 0.761 | 0.72 | 0.691
10 µM, coculture fibroblast: HHSteC | 0.831 | 0.791 | 0.781 | 0.772 | 0.698 | 0.667 | 0.654 | 0.636 | 0.651
10 µM, coculture fibroblast: HMF | 0.837 | 0.805 | 0.924 | 0.747 | 0.865 | 0.833 | 0.804 | 0.772 | 0.74
10 µM, coculture fibroblast: HPFa | 0.949 | 0.92 | 0.921 | 0.852 | 0.828 | 0.811 | 0.777 | 0.739 | 0.725
10 µM, coculture fibroblast: HUF | 0.864 | 0.812 | 0.824 | 0.732 | 0.644 | 0.674 | 0.606 | 0.651 | 0.597
10 µM, coculture fibroblast: Hs5 | 0.8466 | 0.973 | 0.956 | 0.893 | 0.879 | 0.858 | 0.838 | 0.816 | 0.813
10 µM, coculture fibroblast: Hs27A | 0.747 | 0.72 | 0.707 | 0.797 | 0.638 | 0.603 | 0.587 | 0.567 | 0.724
10 µM, coculture fibroblast: Hs343T | 0.863 | 0.8217 | 0.953 | 0.883 | 0.906 | 0.847 | 0.782 | 0.808 | 0.841
10 µM, coculture fibroblast: WS1 | 0.851 | 0.821 | 0.799 | 0.775 | 0.756 | 0.731 | 0.701 | 0.678 | 0.659
100 µM, coculture fibroblast: C12385 | 0.30376 | 0.187 | 0.169 | 0.133 | 0.0904 | 0.077 | 0.0639 | 0.0481 | 0.0371
100 µM, coculture fibroblast: H6013 | 0.281 | 0.246 | 0.219 | 0.188 | 0.167 | 0.16 | 0.133 | 0.117 | 0.0662
100 µM, coculture fibroblast: H6019 | 0.246 | 0.124 | 0.0999 | 0.0648 | 0.0406 | 0.0335 | 0.0181 | 0.0284 | 0.0174
100 µM, coculture fibroblast: H6076 | 0.837 | 0.9196 | 0.897 | 0.81 | 0.802 | 0.794 | 0.75 | 0.711 | 0.684
100 µM, coculture fibroblast: H6231 | 0.836 | 0.84 | 0.741 | 0.626 | 0.596 | 0.572 | 0.524 | 0.465 | 0.44
100 µM, coculture fibroblast: HADF | 0.255 | 0.161 | 0.127 | 0.0979 | 0.0752 | 0.0703 | 0.0512 | 0.0462 | 0.0172
100 µM, coculture fibroblast: HCFa | 0.391 | 0.16 | 0.123 | 0.0963 | 0.0737 | 0.0627 | 0.0396 | 0.025 | 0.0203
100 µM, coculture fibroblast: HCPF | 0.8601 | 0.969 | 0.879 | 0.683 | 0.7389 | 0.686 | 0.639 | 0.6 | 0.571
100 µM, coculture fibroblast: HHSteC | 0.349 | 0.246 | 0.212 | 0.175 | 0.156 | 0.145 | 0.119 | 0.102 | 0.0533
100 µM, coculture fibroblast: HMF | 0.829 | 0.9666 | 0.866 | 0.721 | 0.722 | 0.69 | 0.638 | 0.578 | 0.538
100 µM, coculture fibroblast: HPFa | 0.48 | 0.303 | 0.286 | 0.248 | 0.219 | 0.216 | 0.192 | 0.185 | 0.167
100 µM, coculture fibroblast: HUF | 0.498 | 0.31 | 0.241 | 0.202 | 0.184 | 0.18 | 0.157 | 0.149 | 0.14
100 µM, coculture fibroblast: Hs5 | 0.813 | 0.9038 | 0.8202 | 0.729 | 0.6558 | 0.583 | 0.509 | 0.455 | 0.4
100 µM, coculture fibroblast: Hs27A | 0.43 | 0.339 | 0.255 | 0.227 | 0.189 | 0.195 | 0.161 | 0.143 | 0.0818
100 µM, coculture fibroblast: Hs343T | 0.83876 | 0.9575 | 0.84503 | 0.716 | 0.7237 | 0.696 | 0.63 | 0.567 | 0.501
100 µM, coculture fibroblast: WS1 | 0.283 | 0.182 | 0.157 | 0.123 | 0.0982 | 0.0855 | 0.0677 | 0.0528 | 0.0402
